Data taken from article PMC6116164.
Results are given in words; binding and its absence hold for the method and conditions named. For some assays here: Binding calls can cover weak binding; strength is not graded here. Tags and fused reporters may be left off the sequences shown.

Key:
[1] = molecular target: HD domain of ATH1 fused to BD (Arabidopsis thaliana); test: two-hybrid; BD fusions of ATH1 or its HD or SKY-BELL domain co-expressed with AD-OFP1 in yeast Y2HGold; growth on SD QDO (-Leu, -His, -Trp, -Ade) after selection on SD DDO (-Trp, -Leu); three replicates
[2] = molecular target: SKY-BELL domain of ATH1 fused to BD (Arabidopsis thaliana); test: as above

binding [1]: binds
binding [2]: no binding
B1: OFP1-AD (Ovate Family Protein1 fused to the activation domain) (protein, UniProt Q9LZW2 1-270)
chain: MGNNYRFKLSELIPNAWFYKLRDMSKSKKKNLQSQPNSTTSKKKHHAVPTPTSTTPLSPRPPRRPSHSSKAPPSHPPRKSSGNRLRHRATVDSKSSTTSGDSTTTETGSFSPDFRSDQVLLPDESLTGSWHSPCSSKLSKTATFTPPPELELRPIITKTAATARKTAVNSPAGVRLRMRSPRISVSSSARRSGSSARRSRAVVKASVDPKRDFKESMEEMIAENKIRATKDLEELLACYLCLNSDEYHAIIINVFKQIWLDLNLPPPHSK
